Measured values published in the supplement of paper PMC8728848.
Some of the results follow.

Columns and labels:
Assay in all cases: glycan array binding signal (z-score within array); higher = stronger binding
Details in all cases: glycan notation: IUPAC condensed, linker removed
Gal(b1-3)Gal(b1-4)GlcNAc = molecular target: Gal(b1-3)Gal(b1-4)GlcNAc
Summary of the method: (§1)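 The binding signal is a Z-score computed within each array and averaged over linkers. Arrays of the same protein sequence at different concentrations or buffers were also averaged together. Data originate from 3228 arrays in the Consortium for Functional Glycomics database, kept only where the protein sequence was available.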

[1] = molecular target: Gal(b1-3)Gal(b1-4)GlcNAc(b1-2)Man(a1-3)[Gal(b1-3)Gal(b1-4)GlcNAc(b1-2)Man(a1-6)]Man(b1-4)GlcNAc(b1-4)GlcNAc
Summary of the method: as §1

Gal(b1-3)GalNAc = molecular target: Gal(b1-3)GalNAc
Summary of the method: as §1

[2] = molecular target: Gal(b1-3)GalNAc(a1-3)[Fuc(a1-2)]Gal(b1-4)Glc
Summary of the method: as §1

[3] = molecular target: Gal(b1-3)GalNAc(a1-3)[Fuc(a1-2)]Gal(b1-4)GlcNAc
Summary of the method: as §1

[4] = molecular target: Gal(b1-3)GalNAc(b1-3)Gal(a1-4)Gal(b1-4)Glc
Summary of the method: as §1

[5] = molecular target: Gal(b1-3)GalNAc(b1-4)Gal(b1-4)Glc
Summary of the method: as §1

[6] = molecular target: Gal(b1-3)GalNAc(b1-4)[Neu5Ac(a2-3)]Gal(b1-4)Glc
Summary of the method: as §1

Gal(b1-3)GlcNAc = molecular target: Gal(b1-3)GlcNAc
Summary of the method: as §1

[7] = molecular target: Gal(b1-3)GlcNAc(a1-3)Gal(b1-4)GlcNAc
Summary of the method: as §1

[8] = molecular target: Gal(b1-3)GlcNAc(a1-6)Gal(b1-4)GlcNAc
Summary of the method: as §1

[9] = molecular target: Gal(b1-3)GlcNAc(b1-2)Man(a1-3)[Gal(b1-3)GlcNAc(b1-2)Man(a1-6)]Man(b1-4)GlcNAc(b1-4)GlcNAc
Summary of the method: as §1

[10] = molecular target: Gal(b1-3)GlcNAc(b1-2)Man(a1-3)[Gal(b1-3)GlcNAc(b1-2)Man(a1-6)]Man(b1-4)GlcNAc(b1-4)[Fuc(a1-6)]GlcNAc
Summary of the method: as §1

[11] = molecular target: Gal(b1-3)GlcNAc(b1-2)Man(a1-3)[GlcNAc(b1-4)][Gal(b1-3)GlcNAc(b1-2)Man(a1-6)]Man(b1-4)GlcNAc(b1-4)GlcNAc
Summary of the method: as §1

[12] = molecular target: Gal(b1-3)GlcNAc(b1-2)[Gal(b1-3)GlcNAc(b1-6)]Man(a1-6)[Gal(b1-3)GlcNAc(b1-2)Man(a1-3)]Man(b1-4)GlcNAc(b1-4)GlcNAc
Summary of the method: as §1

[13] = molecular target: Gal(b1-3)GlcNAc(b1-3)Gal(b1-3)GlcNAc
Summary of the method: as §1

[14] = molecular target: Gal(b1-3)GlcNAc(b1-3)Gal(b1-4)Glc
Summary of the method: as §1

[15] = molecular target: Gal(b1-3)GlcNAc(b1-3)Gal(b1-4)GlcNAc
Summary of the method: as §1

[16] = molecular target: Gal(b1-3)GlcNAc(b1-3)Gal(b1-4)GlcNAc(b1-6)[Gal(b1-3)GlcNAc(b1-3)]Gal(b1-4)Glc
Summary of the method: as §1

[17] = molecular target: Gal(b1-3)GlcNAc(b1-3)Gal(b1-4)[Fuc(a1-3)]GlcNAc(b1-6)[Gal(b1-3)GlcNAc(b1-3)]Gal(b1-4)Glc
Summary of the method: as §1

[18] = molecular target: Gal(b1-3)GlcNAc(b1-3)GalNAc
Summary of the method: as §1

[19] = molecular target: Gal(b1-3)GlcNAc(b1-6)Gal(b1-4)GlcNAc
Summary of the method: as §1

[20] = molecular target: Gal(b1-3)GlcNAc(b1-6)GalNAc
Summary of the method: as §1

Gal(b1-3)GlcNAc6S = molecular target: Gal(b1-3)GlcNAc6S
Summary of the method: as §1

[21] = molecular target: Gal(b1-3)[Fuc(a1-4)]GlcNAc
Summary of the method: as §1

[22] = molecular target: Gal(b1-3)[Fuc(a1-4)]GlcNAc(b1-2)Man(a1-3)[Gal(b1-3)[Fuc(a1-4)]GlcNAc(b1-2)Man(a1-6)]Man(b1-4)GlcNAc(b1-4)[Fuc(a1-6)]GlcNAc
Summary of the method: as §1

[23] = molecular target: Gal(b1-3)[Fuc(a1-4)]GlcNAc(b1-3)Gal(b1-3)[Fuc(a1-4)]GlcNAc
Summary of the method: as §1

[24] = molecular target: Gal(b1-3)[Fuc(a1-4)]GlcNAc(b1-3)Gal(b1-4)GlcNAc
Summary of the method: as §1

[25] = molecular target: Gal(b1-3)[Fuc(a1-4)]GlcNAc(b1-3)Gal(b1-4)[Fuc(a1-3)]GlcNAc
Summary of the method: as §1

[26] = molecular target: Gal(b1-3)[Fuc(a1-4)]GlcNAc(b1-6)GalNAc
Summary of the method: as §1

[27] = molecular target: Gal(b1-3)[GlcNAc(b1-6)]GalNAc
Summary of the method: as §1

[28] = molecular target: Gal(b1-3)[Neu5Ac(a2-6)]GalNAc
Summary of the method: as §1

[29] = molecular target: Gal(b1-3)[Neu5Ac(a2-6)]GlcNAc(b1-6)Gal(b1-4)Glc
Summary of the method: as §1

[30] = molecular target: Gal(b1-3)[Neu5Ac(b2-6)]GalNAc
Summary of the method: as §1

Gal(b1-4)Gal = molecular target: Gal(b1-4)Gal
Summary of the method: as §1

[31] = molecular target: Gal(b1-4)GalNAc(a1-3)[Fuc(a1-2)]Gal(b1-4)GlcNAc
Summary of the method: as §1

[32] = molecular target: Gal(b1-4)GalNAc(b1-3)[Fuc(a1-2)]Gal(b1-4)GlcNAc
Summary of the method: as §1

Gal(b1-4)Glc = molecular target: Gal(b1-4)Glc
Summary of the method: as §1

B1: CALR truncated at D342 (Homo sapiens) (protein)
chain: EPAVYFKEQFLDGDGWTSRWIESKHKSDFGKFVLSSGKFYGDEEKDKGLQTSQDARFYALSASFEPFSNKGQTLVVQFTVKHEQNIDCGGGYVKLFPNSLDQTDMHGDSEYNIMFGPDICGPGTKKVHVIFNYKGKNVLINKDIRCKDDEFTHLYTLIVRPDNTYEVKIDNSQVESGSLEDDWDFLPPKKIKDPDASKPEDWDERAKIDDPTDSKPEDWDKPEHIPDPDAKKPEDWDEEMDGEWEPPVIQNPEYKGEWKPRQIDNPDYKGTWIHPEIDNPEYSPDPSIYAYDNFGVLGLDLWQVKSGTIFDNFLITNDEAYAEEFGNETWGVTKAAEKQMKD
- glycan array binding signal (z-score) (Gal(b1-3)Gal(b1-4)GlcNAc): -0.638
- glycan array binding signal (z-score) [1]: 0.087
- glycan array binding signal (z-score) (Gal(b1-3)GalNAc): 0.014
- glycan array binding signal (z-score) [2]: 0.318
- glycan array binding signal (z-score) [3]: 0.837
- glycan array binding signal (z-score) [4]: -0.396
- glycan array binding signal (z-score) [5]: -0.129
- glycan array binding signal (z-score) [6]: -0.443
- glycan array binding signal (z-score) (Gal(b1-3)GlcNAc): -0.45
- glycan array binding signal (z-score) [7]: -0.141
- glycan array binding signal (z-score) [8]: 0.966
- glycan array binding signal (z-score) [9]: -0.863
- glycan array binding signal (z-score) [10]: -0.178
- glycan array binding signal (z-score) [11]: -0.281
- glycan array binding signal (z-score) [12]: 3.33
- glycan array binding signal (z-score) [13]: -0.436
- glycan array binding signal (z-score) [14]: -0.183
- glycan array binding signal (z-score) [15]: -0.279
- glycan array binding signal (z-score) [16]: 0.4
- glycan array binding signal (z-score) [17]: -0.836
- glycan array binding signal (z-score) [18]: -0.05
- glycan array binding signal (z-score) [19]: 0.413
- glycan array binding signal (z-score) [20]: 0.022
- glycan array binding signal (z-score) (Gal(b1-3)GlcNAc6S): -0.136
- glycan array binding signal (z-score) [21]: -0.387
- glycan array binding signal (z-score) [22]: 1.24
- glycan array binding signal (z-score) [23]: 0.907
- glycan array binding signal (z-score) [24]: -1.19
- glycan array binding signal (z-score) [25]: 4.2
- glycan array binding signal (z-score) [26]: 0.999
- glycan array binding signal (z-score) [27]: -0.225
- glycan array binding signal (z-score) [28]: -0.241
- glycan array binding signal (z-score) [29]: -0.26
- glycan array binding signal (z-score) [30]: 0.075
- glycan array binding signal (z-score) (Gal(b1-4)Gal): 0.033
- glycan array binding signal (z-score) [31]: -1.26
- glycan array binding signal (z-score) [32]: -1.75
- glycan array binding signal (z-score) (Gal(b1-4)Glc): -0.137
